According to PMC3377538:
These are yes or no findings as the source states them, for the method shown. In cells and extracts the contact can be indirect. Some results given as binding are weak or reduced against the parent protein; the word gives no strength. Tags and fused reporters may be left off the sequences shown.

Chains of the proteins cited; added tags and fusions are not shown.
UniProt Q13950: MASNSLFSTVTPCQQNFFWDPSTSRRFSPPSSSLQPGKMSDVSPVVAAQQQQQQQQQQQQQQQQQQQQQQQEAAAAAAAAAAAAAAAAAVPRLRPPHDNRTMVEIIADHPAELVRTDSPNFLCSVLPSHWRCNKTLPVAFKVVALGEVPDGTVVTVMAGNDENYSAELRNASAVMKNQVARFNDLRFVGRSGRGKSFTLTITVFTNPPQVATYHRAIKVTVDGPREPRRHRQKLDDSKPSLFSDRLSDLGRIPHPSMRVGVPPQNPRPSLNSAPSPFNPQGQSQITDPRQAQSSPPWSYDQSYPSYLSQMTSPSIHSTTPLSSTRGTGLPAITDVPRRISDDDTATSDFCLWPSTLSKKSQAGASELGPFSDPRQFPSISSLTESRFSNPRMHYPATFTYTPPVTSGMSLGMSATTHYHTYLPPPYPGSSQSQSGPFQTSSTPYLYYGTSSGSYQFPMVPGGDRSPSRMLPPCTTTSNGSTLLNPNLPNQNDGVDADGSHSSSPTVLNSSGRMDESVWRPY

Biological target: T1, histone H3K9-specific methyltransferase Suv39h1 (human (endogenous in H1299)) (UniProt O43463)
T1 sequence: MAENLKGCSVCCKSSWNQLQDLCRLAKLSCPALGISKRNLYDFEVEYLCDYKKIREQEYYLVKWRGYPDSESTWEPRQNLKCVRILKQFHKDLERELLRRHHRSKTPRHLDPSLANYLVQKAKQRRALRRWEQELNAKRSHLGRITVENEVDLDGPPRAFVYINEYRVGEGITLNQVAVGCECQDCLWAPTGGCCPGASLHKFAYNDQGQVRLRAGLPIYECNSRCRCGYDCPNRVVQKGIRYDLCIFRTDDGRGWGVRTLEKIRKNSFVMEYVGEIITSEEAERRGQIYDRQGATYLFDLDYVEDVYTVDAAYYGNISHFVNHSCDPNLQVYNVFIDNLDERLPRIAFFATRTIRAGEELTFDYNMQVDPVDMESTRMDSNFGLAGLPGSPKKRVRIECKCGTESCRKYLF
Assay: co-IP; H1299 whole cell lysates (50 mM NaCl, 50 mM Tris pH 8.0, 1% NP-40) incubated overnight at 4°C with Runx2 (M-70), Suv39h1 or control IgG antibodies; protein A/G beads; blots with Runx2 and Suv39h1 antibodies

binding: binds
Substance: Runt-related transcription factor Runx2 (from UniProt Q13950 1-521)
